The values below come from PubChem BioAssay AID328 (DTP/NCI, 2004).

The assay has as its system BDF1 mice, P388 leukemia ip, median survival T/C. The experiment in a line: NCI In Vivo Anticancer Drug Screen. Data for tumor model P388 Leukemia (intraperitoneal) in B6D2F1 (BDF1) mice. Conditions: T/C endpoint: median survival time, higher T/C = longer survival. Put shortly: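 Read-out is survival of treated animals expressed relative to the vehicle group, as a T/C ratio.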

Where [1] appears, read: dose: 300.0 mg/kg/injection, schedule: Q01DX009 (ip), vehicle: saline.
[2] abbreviates: dose: 25.0 mg/kg/injection, schedule: Q01DX009 (ip), vehicle: water.
[3] abbreviates: dose: 50.0 mg/kg/injection, schedule: Q01DX009 (ip), vehicle: water.
Where [4] appears, read: dose: 100.0 mg/kg/injection, schedule: Q04DX003 (ip), vehicle: water.
The mark [5] stands for this setting: dose: 100.0 mg/kg/injection, schedule: Q01DX009 (ip), vehicle: saline.
Where [6] appears, read: dose: 200.0 mg/kg/injection, schedule: Q01DX009 (ip), vehicle: saline.
The mark [7] stands for this setting: dose: 200.0 mg/kg/injection, schedule: Q01DX009 (ip), vehicle: saline with Tween-80.
Setting [8] is: dose: 25.0 mg/kg/injection, schedule: Q01DX009 (ip), vehicle: saline.
[9] abbreviates: dose: 100.0 mg/kg/injection, schedule: Q04DX003 (ip), vehicle: saline.
Setting [10] is: dose: 50.0 mg/kg/injection, schedule: Q01DX009 (ip), vehicle: saline with Tween-80.
Setting [11] is: dose: 100.0 mg/kg/injection, schedule: Q01DX009 (ip), vehicle: saline with Tween-80.
[12] abbreviates: dose: 100.0 mg/kg/injection, schedule: Q04DX003 (ip), vehicle: saline with Tween-80.
[13] abbreviates: dose: 200.0 mg/kg/injection, schedule: Q01DX005 (ip), vehicle: saline with Tween-80.

The list does not hold the whole screen: it is rich in T/C values a quarter to a half above the control, in often repeated tests (any T/C) and in doses without a T/C. Other doses and runs of a compound stand elsewhere. T/C is the treated group as % of the vehicle group. Some entries give survivors of the animals treated and no T/C: the source holds a T/C of zero for them, seemingly a mark for toxic or unscored doses. Some doses without a T/C left all or most animals alive at the check, yet need not have been tolerated: the source hardly ever lists a survival T/C far under the control, and the zero likely stands for such cases as well. Counts of survivors are from the toxicity check (mostly the fifth day) where no day follows; animals may have died later. Schedule codes are those of the source, read here as Q, the interval in days (D) or hours (H), X, the number of doses. Some entries were tested several times; the values are given in rising order. For survival time, the PubChem record calls one and a half times the control and up active, and a quarter to a half above the control has no call in these data; cut-offs in other NCI protocols can differ. Some T/C values are followed by the survivors on the day toxicity was checked, most often the fifth; where none is given, no animal had died by that day.

On to `CCN(CC)CCNc1ccc(CO)c2sc3ccccc3c(=O)c12`, for which the T/C (dose: 25.2 mg/kg/injection, schedule: Q01DX009 (ip), vehicle: water) was 142 % of control; the T/C (dose: 36.0 mg/kg/injection, schedule: Q01DX009 (ip), vehicle: water) was 138 % of control; the T/C (dose: 37.5 mg/kg/injection, schedule: Q01DX009 (ip), vehicle: saline) was 137 % of control. Also, the survivor count was 5 of 6 (dose: 150.0 mg/kg/injection, schedule: Q01DX009 (ip), vehicle: saline) and 4 of 6 under setting [1].

Consider `CCN(CC)CCCC(C)NC/C=C/CNC(C)CCCN(CC)CC` (stereo not drawn), for which the survivor count (dose: 6.25 mg/kg/injection, schedule: Q01DX009 (ip), vehicle: water) is given as 6 of 6.

As to `CCCCn1cnc2c(=S)nc(N)[nH]c21`, where the note is “dose: 75.0 mg/kg/injection, schedule: Q04DX003 (ip), vehicle: saline with Tween-80”, the T/C was 125 % of control.

Consider `O=S(=O)(O)O.[NH-]CC(N)=O.[NH-]CC(N)=O.[Ni+2]`, for which the survivor count is, setting by setting: under setting [2], 6 of 6; under setting [3], 4 of 6; under setting [4], 2 of 6.

Regarding `COc1cc2c(cc1OC)CC[N+](C)=C2`, the T/C (dose: 25.0 mg/kg/injection, schedule: Q04DX003 (ip), vehicle: saline) was 130 % of control. Moreover, the survivor count runs as follows: under setting [5], 2 of 6; under setting [6], 0 of 6.

On to `O=C(/C(=C\c1ccccc1)CN1CCOCC1)c1ccc(Br)cc1`, for which, for the setting “dose: 100.0 mg/kg/injection, schedule: Q01DX009 (ip), vehicle: Klucel (hydroxypropylcellulose) (HPC)”, the survivor count was 4 of 6.

For the compound `CC(C)(C)OP(=O)(OC(C)(C)C)c1ccccc1`, the survivor count under setting [7] was 0 of 6.

With `N=c1cc(-c2ccc(Cl)cc2)ss1`, the T/C under setting [8] is 133 % of control. Further, the survivor count is reported as 5 of 6 under setting [5]; 3 of 6 under setting [6]; 0 of 6 under setting [1]; 2 of 6 (dose: 400.0 mg/kg/injection, schedule: Q04DX003 (ip), vehicle: saline).

With `CCSc1ncc2cnccn12`, the T/C runs as follows: (dose: 3.0 mg/kg/injection, schedule: Q01DX009 (ip), vehicle: water, evaluated on day 21) 101 % of control; (dose: 3.0 mg/kg/injection, schedule: Q01DX009 (ip), vehicle: water, evaluated on day 30) 98, 109, 126 % of control. Moreover, the survivor count by setting is: (dose: 8.0 mg/kg/injection, schedule: Q01DX009 (ip), vehicle: water) 4 of 6; (dose: 25.0 mg/kg/injection, schedule: Q04DX003 (ip), vehicle: water) 4 of 6; (dose: 50.0 mg/kg/injection, schedule: Q04DX003 (ip), vehicle: water) 0 of 6; under setting [4], 0 of 6.

Take `Cn1c(=N)ccn(C2OC(CO)C(O)C2O)c1=O` (stereo not drawn) (tested in a mixture with another compound): the T/C under setting [9] was 130 % of control.

With `Cc1nc[nH]c1[N+](=O)[O-]`, the survivor count is on record as 6 of 6 under setting [10], 2 of 6 under setting [11] and 2 of 6 under setting [7].

Regarding `CNNCc1ccc(C(=O)NC(N)=O)cc1`, the T/C is 125 % of control under setting [5], 148 % of control under setting [6] and 138 % of control under setting [1].

Consider `CCCCCCCCCCCCOc1ccccc1C=O`, for which the T/C (dose: 400.0 mg/kg/injection, schedule: Q04DX003 (ip), vehicle: saline sonified) is 131 % of control.

Consider `CC(N)Cc1ccc(N(C)C)cc1F` (stereo not drawn), for which the T/C under setting [5] is 136 % of control. For the same compound, the survivor count is, setting by setting: under setting [7], 1 of 6; under setting [6], 0 of 6.

Take `COC1CCC2=C(C1)C(=O)CC1c3ccccc3CN21` (stereo not drawn): the survivor count under setting [12] was 5 of 6.

Turning to `CCC12C=CCN3CCC4(c5ccc(OC)cc5N(C)C4C(O)(C(=O)OC)C1OC(C)=O)C32` (stereo not drawn) (tested in a mixture with another compound), the survivor count (dose: 0.5 mg/kg/injection, schedule: Q01DX009 (ip), vehicle: water) is 5 of 6.

In the case of `Cc1nc2ccc(O)cc2cc1CBr`, under setting [8], the T/C was 130 % of control. For the same compound, the survivor count (dose: 50.0 mg/kg/injection, schedule: Q01DX009 (ip), vehicle: saline) was 2 of 6 and 3 of 6; the survivor count under setting [9] is 3 of 6.

Turning to `CC(C)CC1NC(=O)C(Cc2ccc(OCc3ccccc3)cc2)NC1=O` (stereo not drawn), the T/C under setting [12] is 127 % of control.

Turning to `CCOC(=O)CSc1nc2nc(Cl)c(Cl)nc2[nH]1`, the survivor count (dose: 25.0 mg/kg/injection, schedule: Q04DX003 (ip), vehicle: saline with Tween-80) is recorded as 3 of 6.

On to `COc1cc(N=Nc2ccc(O)c3ncccc23)c(OC)cc1N=Nc1ccc([N+](=O)[O-])cc1`, for which, under setting [13], the survivor count was 5 of 5.

In the case of `N#CC(Br)(Br)C(N)=O`, the survivor count reads like this: (dose: 10.0 mg/kg/injection, schedule: Q01DX009 (ip), vehicle: saline) 5 of 6; (dose: 20.0 mg/kg/injection, schedule: Q01DX009 (ip), vehicle: saline) 0 of 6.

As for `COc1cc(Br)c(/C=C/[N+](=O)[O-])cc1OC`, the T/C runs as follows: (dose: 50.0 mg/kg/injection, schedule: Q04DX003 (ip), vehicle: saline with Tween-80) 132 % of control; under setting [12], 125 % of control.

`NC(=S)N/N=C/c1ccc(OC(=O)Cc2ccccc2)cn1`: the T/C reads like this: (dose: 25.0 mg/kg/injection, schedule: Q01DX009 (ip), vehicle: saline with Tween-80) 140 % of control; under setting [10], 142 % of control [5 of 6 alive]; under setting [11], 142 % of control.

Turning to `CN=NNCc1ccccc1`, for the setting “dose: 6.25 mg/kg/injection, schedule: Q01DX005 (ip), vehicle: saline”, the T/C is 137 % of control [4 of 5 alive].

Consider `[NH-]C(CO)C(=O)O.[NH-]C(CO)C(=O)O.[Pd+2]` (stereo not drawn), for which the T/C is 132 % of control under setting [2] and 130 % of control under setting [3]. Also, the survivor count (dose: 100.0 mg/kg/injection, schedule: Q01DX009 (ip), vehicle: water) is on record as 4 of 6.

For the compound `C=C1C(=O)CCC1/C=C\C` (stereo not drawn), the survivor count reads like this: (dose: 100.0 mg/kg/injection, schedule: Q01DX005 (ip), vehicle: saline with Tween-80) 0 of 6; under setting [13], 0 of 6.

Turning to `Cn1cnc([N+](=O)[O-])c1Sc1ncnc2c1ncn2C1OC(CO)C(O)C1O` (stereo not drawn), where the note is “dose: 400.0 mg/kg/injection, schedule: Q01DX009 (ip), vehicle: Klucel (hydroxypropylcellulose) (HPC)”, the survivor count is reported as 5 of 6.

As for `CCN(CC)CCCCCNc1cc(OC)cc2c(C)ccnc12`, the survivor count under setting [6] is given as 0 of 6.

`CC(CCC(C)OS(C)(=O)=O)OS(C)(=O)=O` (stereo not drawn): the survivor count reads like this: (dose: 8.0 mg/kg/injection, schedule: Q01DX010 (ip), vehicle: saline) 6 of 6; (dose: 32.0 mg/kg/injection, schedule: Q01DX010 (ip), vehicle: saline) 6 of 6. The T/C (dose: 16.0 mg/kg/injection, schedule: Q01DX010 (ip), vehicle: saline) is 136 % of control.

For the compound `CC1=Cc2ccc(C)cc2C(=O)C1=O`, the survivor count (dose: 12.5 mg/kg/injection, schedule: Q01DX009 (ip), vehicle: Klucel (hydroxypropylcellulose) (HPC)) is given as 2 of 6.

With `C/C=C(/C)C(=O)O[C@H]1CC[N+]2([O-])CC=C(COC(=O)[C@@](O)([C@H](C)OC)C(C)(C)O)[C@H]12` (stereo partly drawn), the survivor count is, setting by setting: (dose: 6.25 mg/kg/injection, schedule: Q01DX010 (ip), vehicle: saline) 6 of 6; (dose: 12.5 mg/kg/injection, schedule: Q01DX010 (ip), vehicle: saline) 6 of 6; (dose: 25.0 mg/kg/injection, schedule: Q01DX010 (ip), vehicle: saline) 6 of 6. Under “dose: 160.0 mg/kg/injection, schedule: Q01DX010 (ip), vehicle: saline”, the T/C was 127 % of control.
